Drawing on paper doi:10.1101/2024.07.23.604771, this text covers binding for two molecules.

The chains behind the UniProt entries cited, without tags or fusion partners.
UniProt Q2HRC8: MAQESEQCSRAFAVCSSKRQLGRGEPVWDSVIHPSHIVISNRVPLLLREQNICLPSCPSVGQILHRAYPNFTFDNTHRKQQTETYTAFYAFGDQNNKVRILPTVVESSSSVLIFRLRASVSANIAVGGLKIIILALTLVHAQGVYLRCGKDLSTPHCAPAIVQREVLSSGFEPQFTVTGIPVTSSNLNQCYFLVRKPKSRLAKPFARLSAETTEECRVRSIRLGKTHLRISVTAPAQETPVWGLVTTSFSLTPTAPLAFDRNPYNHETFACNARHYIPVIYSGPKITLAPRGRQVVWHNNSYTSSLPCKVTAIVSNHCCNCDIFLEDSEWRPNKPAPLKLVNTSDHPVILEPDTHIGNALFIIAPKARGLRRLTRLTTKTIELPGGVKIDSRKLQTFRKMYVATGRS

The target in this test is FLAG-ORF11 (KSHV) (UniProt Q2HRC8). The test is described as follows: co-IP.

These are yes or no findings as the source states them, for the method shown. In cells and extracts the contact can be indirect. Some results given as binding are weak or reduced against the parent protein; the word gives no strength.

B1: NOP14 (protein, UniProt P78316 1-857)
chain: MAKAKKVGARRKASGAPAGARGGPAKANSNPFEVKVNRQKFQILGRKTRHDVGLPGVSRARALRKRTQTLLKEYKERDKSNVFRDKRFGEYNSNMSPEEKMMKRFALEQQRHHEKKSIYNLNEDEELTHYGQSLADIEKHNDIVDSDSDAEDRGTLSAELTAAHFGGGGGLLHKKTQQEGEEREKPKSRKELIEELIAKSKQEKRERQAQREDALELTEKLDQDWKEIQTLLSHKTPKSENRDKKEKPKPDAYDMMVRELGFEMKAQPSNRMKTEAELAKEEQEHLRKLEAERLRRMLGKDEDENVKKPKHMSADDLNDGFVLDKDDRRLLSYKDGKMNVEEDVQEEQSKEASDPESNEEEGDSSGGEDTEESDSPDSHLDLESNVESEEENEKPAKEQRQTPGKGLISGKERAGKATRDELPYTFAAPESYEELRSLLLGRSMEEQLLVVERIQKCNHPSLAEGNKAKLEKLFGFLLEYVGDLATDDPPDLTVIDKLVVHLYHLCQMFPESASDAIKFVLRDAMHEMEEMIETKGRAALPGLDVLIYLKITGLLFPTSDFWHPVVTPALVCLSQLLTKCPILSLQDVVKGLFVCCLFLEYVALSQRFIPELINFLLGILYIATPNKASQGSTLVHPFRALGKNSELLVVSAREDVATWQQSSLSLRWASRLRAPTSTEANHIRLSCLAVGLALLKRCVLMYGSLPSFHAIMGPLQALLTDHLADCSHPQELQELCQSTLTEMESQKQLCRPLTCEKSKPVPLKLFTPRLVKVLEFGRKQGSSKEEQERKRLIHKHKREFKGAVREIRKDNQFLARMQLSEIMERDAERKRKVKQLFNSLATQEGEWKALKRKKFKK
Consider B1, for which the binding entry is given as “binds”.

B2: NOC4L (protein, UniProt Q9BVI4 1-516)
chain: MEREPGAAGVRRALGRRLEAVLASRSEANAVFDILAVLQSEDQEEIQEAVRTCSRLFGALLERGELFVGQLPSEEMVMTGSQGATRKYKVWMRHRYHSCCNRLGELLGHPSFQVKELALSALLKFVQLEGAHPLEKSKWEGNYLFPRELFKLVVGGLLSPEEDQSLLLSQFREYLDYDDTRYHTMQAAVDAVARVTGQHPEVPPAFWNNAFTLLSAVSLPRREPTVSSFYVKRAELWDTWKVAHLKEHRRVFQAMWLSFLKHKLPLSLYKKVLLIVHDAILPQLAQPTLMIDFLTRACDLGGALSLLALNGLFILIHKHNLEYPDFYRKLYGLLDPSVFHVKYRARFFHLADLFLSSSHLPAYLVAAFAKRLARLALTAPPEALLMVLPFICNLLRRHPACRVLVHRPHGPELDADPYDPGEEDPAQSRALESSLWELQALQRHYHPEVSKAASVINQALSMPEVSIAPLLELTAYEIFERDLKKKGPEPVPLEFIPAQGLLGRPGELCAQHFTLS
With B2, the binding entry is “binds”.
